PubChem BioAssay AID1508597 – Cure First – 2020
Aim: 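Knock-downs altering ovarian cancer cell survival with or without PARP inhibitor rucaparib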 (primary screen). Cell system: human ovarian carcinoma lines grown from tumours: OCI-P5x (papillary serous) and OCI-C5x (clear cell). Knock-down reagent: siRNA pool against human genes, 1.25 pmol siRNA per well. Duration: 72 h or 96 h, depending on the cell culture. Treatment: rucaparib 20 µM (about IC30) or vehicle, present until read-out. Rucaparib or vehicle: Vehicle. Cell line: OCI-P5x (serous). Read-out: 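ATP luminescence measured at 72 or 96 h according to the culture, then normalised and expressed as percent viability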. Direction: viability, normalised: higher = more viable cells remaining. Rule for the call: 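a well counts as a hit if its normalised viability is under 80 percent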. Calls: active = viability under 80%; inactive = viability 80% or more.
This is an unselected part of the about 2,100 reagents, under one of the conditions tested. 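Calls flag viability under 80% in either arm, not effects specific to rucaparib; the reference for percent is not stated.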 Some reagents were tested in more than one well and are listed for each. The record does not give: the 100% reference.

LATS2 (large tumor suppressor kinase 2), technical replicate 1 gave viability, normalised (%) = 83.8; inactive.
LATS2 (large tumor suppressor kinase 2), technical replicate 2 gave viability, normalised (%) = 68.9; active.
With LATS2 (large tumor suppressor kinase 2), technical replicate 3, the entry reads viability, normalised (%) = 81.6; inactive.
APOE (apolipoprotein E), technical replicate 1 scored viability, normalised (%) = 67.4; active.
With APOE (apolipoprotein E), technical replicate 2, the entry reads viability, normalised (%) = 67.2; active.
APOE (apolipoprotein E), technical replicate 3 gave viability, normalised (%) = 72.5; active.
MARK1 (microtubule affinity regulating kinase 1), technical replicate 1 scored viability, normalised (%) = 66.7; active.
With MARK1 (microtubule affinity regulating kinase 1), technical replicate 2 the deposit lists viability, normalised (%) = 59.8; active.
With MARK1 (microtubule affinity regulating kinase 1), technical replicate 3 the deposit lists viability, normalised (%) = 59; active.
SMAD1 (SMAD family member 1), technical replicate 1 showed viability, normalised (%) = 40.8; active.
SMAD1 (SMAD family member 1), technical replicate 2 gave viability, normalised (%) = 41.3; active.
SMAD1 (SMAD family member 1), technical replicate 3 scored viability, normalised (%) = 43.2; active.
With PHF21A (PHD finger protein 21A), technical replicate 1, the values are viability, normalised (%) = 48.1; active.
With PHF21A (PHD finger protein 21A), technical replicate 2, the entry reads viability, normalised (%) = 57.2; active.
PHF21A (PHD finger protein 21A), technical replicate 3 gave viability, normalised (%) = 70.6; active.
For HMGB2 (high mobility group box 2), technical replicate 1 the deposit lists viability, normalised (%) = 95.5; inactive.
HMGB2 (high mobility group box 2), technical replicate 1 gave viability, normalised (%) = 54.6; active.
For HMGB2 (high mobility group box 2), technical replicate 2, the entry reads viability, normalised (%) = 83.5; inactive.
HMGB2 (high mobility group box 2), technical replicate 2 scored viability, normalised (%) = 98; inactive.
For HMGB2 (high mobility group box 2), technical replicate 3, the values are viability, normalised (%) = 77; active.
HMGB2 (high mobility group box 2), technical replicate 3 gave viability, normalised (%) = 92.4; inactive.
With TSSK4 (testis specific serine kinase 4), technical replicate 1 the deposit lists viability, normalised (%) = 67; active.
TSSK4 (testis specific serine kinase 4), technical replicate 2 showed viability, normalised (%) = 61.1; active.
TSSK4 (testis specific serine kinase 4), technical replicate 3 scored viability, normalised (%) = 58.1; active.
TPD52 (tumor protein D52), technical replicate 1 scored viability, normalised (%) = 58.2; active.
For TPD52 (tumor protein D52), technical replicate 2, the values are viability, normalised (%) = 63.6; active.
TPD52 (tumor protein D52), technical replicate 3 gave viability, normalised (%) = 66.2; active.
MASTL (microtubule associated serine/threonine kinase like), technical replicate 1 showed viability, normalised (%) = 59.4; active.
With MASTL (microtubule associated serine/threonine kinase like), technical replicate 2, the values are viability, normalised (%) = 63.7; active.
For MASTL (microtubule associated serine/threonine kinase like), technical replicate 3, the values are viability, normalised (%) = 63; active.
With SRC (SRC proto-oncogene, non-receptor tyrosine kinase), technical replicate 1, the entry reads viability, normalised (%) = 98.9; inactive.
For SRC (SRC proto-oncogene, non-receptor tyrosine kinase), technical replicate 2, the entry reads viability, normalised (%) = 85.4; inactive.
SRC (SRC proto-oncogene, non-receptor tyrosine kinase), technical replicate 3 scored viability, normalised (%) = 99.1; inactive.
HDAC6 (histone deacetylase 6), technical replicate 1 showed viability, normalised (%) = 72.6; active.
For HDAC6 (histone deacetylase 6), technical replicate 2, the values are viability, normalised (%) = 80.3; inactive.
HDAC6 (histone deacetylase 6), technical replicate 3 scored viability, normalised (%) = 87.5; inactive.
DHFR (dihydrofolate reductase), technical replicate 1 showed viability, normalised (%) = 75; active.
DHFR (dihydrofolate reductase), technical replicate 2 showed viability, normalised (%) = 73.7; active.
DHFR (dihydrofolate reductase), technical replicate 3 showed viability, normalised (%) = 72.1; active.
For FCSK (fucose kinase), technical replicate 1, the values are viability, normalised (%) = 78; active.
FCSK (fucose kinase), technical replicate 2 scored viability, normalised (%) = 66.1; active.
For FCSK (fucose kinase), technical replicate 3, the values are viability, normalised (%) = 58.3; active.
